The results in this text go back to PMC5109907, “Enhancing succinic acid biosynthesis in Escherichia coli by engineering its global transcription factor, catabolite repressor/activator (Cra)” (Scientific Reports, 2016).

The target of this data set is T1, Cra wild type (Escherichia coli) (UniProt P0ACP1).
T1 sequence (looked up, limits assumed): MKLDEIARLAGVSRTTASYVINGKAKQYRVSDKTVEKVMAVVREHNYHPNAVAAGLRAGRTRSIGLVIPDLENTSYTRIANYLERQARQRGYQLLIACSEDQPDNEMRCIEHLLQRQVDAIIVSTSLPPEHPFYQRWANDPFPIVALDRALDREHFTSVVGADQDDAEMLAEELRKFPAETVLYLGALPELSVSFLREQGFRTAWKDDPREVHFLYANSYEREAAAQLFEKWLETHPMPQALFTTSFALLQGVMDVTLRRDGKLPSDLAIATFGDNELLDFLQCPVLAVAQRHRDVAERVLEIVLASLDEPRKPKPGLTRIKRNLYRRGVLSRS
The experiment in a line: EMSA. The settings on record: 1 mM FBP, weaker than without FBP; EMSA: 50 nM oligonucleotide mixture annealed in TE buffer, with or without 1 mM FBP, 15 min at 30 C, nondenaturing 10% polyacrylamide gel, ethidium bromide; recombinant protein; protein details: His6; label: none (ethidium bromide stain). In general terms: A gel shift assay detects complexes by their altered migration in electrophoresis.

Construct, isoform or probe ends are uncertain for at least one entry. The comparison behind a weaker result is the experiment's own reference, which may not be listed here. Protein sequences can lack the tags named with them.

As for “TCGTTAAGCGATTCAGCA (double strand) [aceBAK 18-bp Cra site]”, the binding result is given as “binds more weakly”.
